For at least one compound, name, drawing or mass did not settle the structure.
How the values were obtained:
Assay type in all cases: cell-based, mouse
Gata2 expression = experiment: RT-PCR and Western blot of Gata2/GATA-2 and GATA-2 target genes in fetal liver cells and FACS-sorted R2 cells; conditions: for Gata2 expression at RNA level / Gata2 expression at protein level: fetal liver cells, derivative comparison; for Gata2 expression at RNA level: DMSO control
Method: (§1) Cell culture. G1E-ER-GATA-1 cells were cultured with or without 1 μM estradiol as previously described. Fetal liver erythroid precursor cells were cultured and maintained at a density of 2.5×10^5−1×10^6 cells/ml in StemPro®-34 (Gibco) supplemented with 10% nutrient supplement (Gibco), 2 mM L-glutamine (Cellgro), 1% Penicillin/streptomycin (Cellgro), 100 μM monothioglycerol (Sigma-Aldrich), 1 μM dexamethasone (Sigma-Aldrich), 0.5 U/ml of erythropoietin, and 1% conditioned medium from a kit ligand-producing CHO cell line for expansion. Cells were cultured in a humidified incubator at 37° C. (5% carbon dioxide).
Quantitative real-time RT-PCR. Total RNA was purified from TRIzol® (Invitrogen) according to manufacturers' instructions. cDNA was synthesized from 1 μg purified total RNA by Moloney murine leukemia virus reverse transcriptase (M-MLV RT). Real-time PCR was performed with SYBR green master mix (Applied Biosystems) and Product accumulation was monitored by SYBR green fluorescence using either a StepOnePlus™ or Viia™7 instrument (Applied Biosystems). Relative expression was determined from a standard curve of serial dilutions of cDNA samples, and values were normalized to 18S RNA expression. The sequences of primers used for RT-PCR and genotyping are provided below.
Flow cytometry. Dissociated cells from cultured AGM explants were resuspended in PBS containing 2% FBS and passed through 25-μm cell strainers to obtain single-cell suspensions prior to antibody staining. Fetal liver cells were washed with PBS once before antibody staining. APC-conjugated antibody CD31 (MEC13.3, Biolegend), PE-conjugated antibody c-Kit (2B8, eBioscience), PerCP-Cy5.5-conjugated antibody Scal (D7, eBioscience), APC-conjugated antibody Ter119 (TER119, eBioscience) and PE-conjugated CD71 (R17217, eBioscience) were used for flow cytometry and Fluorescence Activated Cell Sorting (FACS). Samples were analyzed on a FACSAria™ II cell sorter (BD Biosciences). Cells were gated on GFP to ensure retroviral expression. DAPI (Sigma-Aldrich) exclusion was utilized for live/dead discrimination. FACS-sorted cells were immediately processed for RNA isolation or colony assay.

[1] = test system: Lin- hematopoietic precursors from E14.5 fetal livers; experiment: Erythroid maturation (CD71/Ter119, R1-R5) of E14.5 fetal liver hematopoietic precursors, flow cytometry; conditions: for activity on erythropoiesis (flow analysis, R1-R5), compared with psychosine: Lin- HSPCs from fetal liver, DMSO as control, 3 days
Method: Primary erythroid precursor cell isolation. Primary erythroid precursors were isolated from E14.5 fetal livers using the EasySep™ negative selection Mouse Hematopoietic Progenitor Cell Enrichment Kit (StemCell Technologies). Briefly, fetal livers were dissociated by pipetting and resuspended at 5×10^7 cell/ml in PBS containing 2% FBS, 2.5 mM EDTA, and 10 mM glucose. EasySep™ Mouse Hematopoietic Progenitor Cell Enrichment Cocktail was added at 50 μg/ml supplemented with 2.5 μg/ml biotin-conjugated CD71 antibody (eBioscience). After 15 min incubation on ice, the cells were washed by centrifugation for […] at 1200 rpm at 4° C. and resuspended at 5×10^7 cell/ml in PBS containing 2% FBS, 2.5 mM EDTA, and 10 mM glucose, and EasySep™ Biotin Selection Cocktail was added at 100 μg/ml. After 15 min incubation at 4° C., EasySep™ Mouse Progenitor Magnetic Microparticles were added at 50 μg/ml. After 10 min incubation at 4° C., cells were resuspended to 2.5 ml and incubated with a magnet for 3 min. Unbound cells were carefully transferred into 15 ml tube and used for subsequent experiments.
as §1, with “(5% carbon dioxide).” left out
Flow cytometry. […] APC-conjugated antibody CD31 (MEC13.3, Biolegend), PE-conjugated antibody c-Kit (2B8, eBioscience), PerCP-Cy5.5-conjugated antibody Scal (D7, eBioscience), APC-conjugated antibody Ter119 (TER119, eBioscience) and PE-conjugated CD71 (R17217, eBioscience) were used for flow cytometry and Fluorescence Activated Cell Sorting (FACS). Samples were analyzed on a FACSAria™ II cell sorter (BD Biosciences). […]

[2] = test system: CD31+c-KIT+ and CD31+c-KIT+SCA1+ cell populations in E11.5 AGM explants; experiment: AGM explant culture, flow cytometry of hematopoietic cell populations; conditions: 20 μM, 96 h (4 days) culture, vs vehicle
[3] = FACS-sorted R2 cells, compound treatment

| SMILES | Gata2 expression at RNA level (Gata2 expression) | Gata2 expression at protein level (Gata2 expression; Western blot) | activity on erythropoiesis (flow analysis, R1-R5), compared with psychosine [1] | CD31+c-KIT+ cells [2] | CD31+c-KIT+SCA1+ cell population [2] | Gata2 mRNA (Gata2 expression; [3]) | Gata2 primary transcript (Gata2 expression; [3]) | GATA-2 protein (Gata2 expression; FACS-sorted R2 cells, compound treatment, Western blot) | R3 cells ([1]; compound in DMSO vs DMSO alone, 72 h ex vivo culture) |
| --- | --- | --- | --- | --- | --- | --- | --- | --- | --- |
| CCCCCCCCCCCCC/C=C/[C@@H](O)[C@@H](N)CO[C@@H]1OC(CO)[C@@H](O)[C@H](O)C1O (stereo partly drawn) [glucosylsphingosine] | upregulated | upregulated | exhibited similar activity as psychosine | – | – | – | – | – | – |
| CCCCCCCCCCCCC/C=C/C(O)C(N)CO[C@@H]1O[C@H](CO)[C@H](O)[C@H](O)[C@H]1O (stereo partly drawn) [psychosine, galactosylsphingosine] | upregulated | upregulated | slightly but significantly blocks erythropoiesis | did not alter | increased | increased | increased | increased | decreased |

— patent US11053475B2, “Methods of expanding hematopoietic stem cells, compositions, and methods of use thereof” (WISCONSIN ALUMNI RESEARCH FOUNDATION, priority 2015, dated 2021)
